The record followed here is EP4685142A1, “TRIAZINE COMPOUND AND USE THEREOF” (Chengdu Zenitar Biomedical Technology Co., Ltd., priority 2023, dated 2024).

A short description of the data set: In vivo brain-to-plasma ratio in mice.
Setting [1] is: male, mouse, brain/plasma, po, 10 mg/kg.

SMILES strings stand for the structures.

A word on the Kp: it is the ratio of the level in a tissue or fluid to that in plasma or blood.

Take `Cc1c(N[C@@H]2CCCC[C@H]2O)nnc(-c2ccc(C(F)(F)F)cc2O)c1C` [Ref-1, reference compound]: the Brain (1 h, male mice, oral 10 mg/kg) came to 56 ng/g. In addition, under setting [1], the Kp at 1 h is 0.02 and the partition ratio (Kp) at 6 h is 0.06. Moreover, the concentration at 1 h (male, mouse, plasma, po, 10 mg/kg) was found to be 2330 ng/mL.
